Here are results for 25 compounds from the supplement of paper PMC12542422.

SMILES strings stand for the structures. Structures can show the parent of a compound that is named as a salt. ± gives the standard deviation of the averaged measurements. The list shows a part of the results. Values are raw readings; no control value is given beside them.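 HeLa cells imaged for ribosome-assembly readouts (ENP1 staining with or without export block, or inducible tagged ribosomal protein reporters); machine learning classified each cell's signal location against solvent (DMSO) controls. Hits exceeded the DMSO false-positive mean by five standard deviations, then were visually confirmed; three biological replicates.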

The subject of assay [1] is HeLa K (ENP1 immunofluorescence, +LMB). Nature of the assay: fraction of cells with nucleolar or nucleolar/nucleoplasmic ENP1 signal (MainHitrate); higher = more cells with nucleolar/nuclear readout signal (for ENP1 -LMB: less RNAPI inhibition; for +LMB ENP1 and RP reporters: stronger nuclear/nucleolar retention, i.e. ribosome biogenesis defect). The following applies: concentration: 1 µM; treatment time: 6 h; ENP1 +LMB; leptomycin B: 20 nM, last 1.5 h.

Assay [2] relates to HeLa K (ENP1 immunofluorescence, no LMB). Described as above. The following applies: concentration: 1 µM; treatment time: 6 h; ENP1 -LMB; leptomycin B: none.
For assay [3], the system named is HeLa RPS2-YFP reporter. The assay can be described thus: fraction of reporter-positive cells with nuclear (nucleolar or nucleolar/nucleoplasmic) RPS2-YFP (MainHitrate); higher = more cells with nucleolar/nuclear readout signal (for ENP1 -LMB: less RNAPI inhibition; for +LMB ENP1 and RP reporters: stronger nuclear/nucleolar retention, i.e. ribosome biogenesis defect). The following applies: concentration: 1 µM; treatment time: 6 h.

For assay [4], the system named is HeLa RPL29-GFP reporter. Nature of the assay: fraction of reporter-positive cells with nuclear (nucleolar or nucleolar/nucleoplasmic) RPL29-GFP (MainHitrate); higher = more cells with nucleolar/nuclear readout signal (for ENP1 -LMB: less RNAPI inhibition; for +LMB ENP1 and RP reporters: stronger nuclear/nucleolar retention, i.e. ribosome biogenesis defect). The following applies: concentration: 1 µM; treatment time: 6 h.

`NC(=O)c1cnccn1` [Pyrazinamide (Pyrazinoic acid amide)]: the results for the fraction in assay [1] and in assay [2] were 0.131 ± 0.15 and 0.999 ± 0.0018, respectively. Also, the “fraction of reporter-positive cells with nuclear” value (shortened to “fraction … with nuclear”) worked out at 0.116 ± 0.062 in assay [3] and 0.196 ± 0.086 in assay [4].
The corresponding values for `CCN1CCC[C@H]1CNC(=O)c1cc(S(N)(=O)=O)ccc1OC` [Levosulpiride (Levogastrol)] are 0.066 ± 0.079, 0.988 ± 0.021, 0.0935 ± 0.076 and 0.23 ± 0.077.
For `CNC(=O)c1ccc(N2C(=S)N(c3ccc(C#N)c(C(F)(F)F)c3)C(=O)C2(C)C)cc1F` [MDV3100 (Enzalutamide)], in that order: 0.14 ± 0.19, 0.9986 ± 0.0024, 0.108 ± 0.049 and 0.215 ± 0.057.
For `C=C[C@]1(C)C[C@@H](OC(=O)CS[C@@H]2C[C@H]3CC[C@@H](C2)N3C)[C@]2(C)[C@H](C)CC[C@]3(CCC(=O)[C@H]32)[C@@H](C)[C@@H]1O` [Retapamulin], in that order: 0.0588 ± 0.07, 0.984 ± 0.028, 0.109 ± 0.094 and 0.209 ± 0.074.
As to `NCCS` [Cysteamine HCl], the fraction in assay [1] came to 0.0575 ± 0.061; in assay [2] it was 0.991 ± 0.016. The “fraction … with nuclear” value in assay [3] turned out to be 0.141 ± 0.089; in assay [4], 0.22 ± 0.047.
The corresponding values for `CCCc1nc(C(C)(C)O)c(C(=O)OCc2oc(=O)oc2C)n1Cc1ccc(-c2ccccc2-c2nnn[nH]2)cc1` [Olmesartan medoxomil (Benicar)] are 0.0829 ± 0.081, 0.9979 ± 0.0036, 0.116 ± 0.062 and 0.208 ± 0.074.
For `CC(C)C(=O)Nc1ccc([N+](=O)[O-])c(C(F)(F)F)c1` [Flutamide (Eulexin)], in that order: 0.12 ± 0.17, 0.992 ± 0.013, 0.13 ± 0.12 and 0.215 ± 0.08.
The corresponding values for `O=C(CCCN1CCN(c2ccccn2)CC1)c1ccc(F)cc1` [Azaperone] are 0.109 ± 0.15, 0.983 ± 0.029, 0.131 ± 0.09 and 0.21 ± 0.043.
`CC(=O)Nc1ccccc1` [Acetanilide (Antifebrin)]: the values for the fraction in assay [1] and in assay [2] were 0.107 ± 0.16 and 0.988 ± 0.021, respectively. Further, the “fraction … with nuclear” value in assay [3] stood at 0.118 ± 0.068; in assay [4], 0.247 ± 0.093.
For `Nc1ccn([C@@H]2O[C@H](CO)[C@@H](O)[C@H]2O)c(=O)n1` [Cytidine], in that order: 0.131 ± 0.2, 0.993 ± 0.012, 0.107 ± 0.045 and 0.229 ± 0.059.
Regarding `CC(C)[C@H](N)C(=O)OCC(CO)OCn1cnc2c(=O)nc(N)[nH]c21` (stereo not given in full) [valganciclovir hydrochloride], the figures for the fraction in assay [1] and in assay [2] were 0.059 ± 0.07 and 0.994 ± 0.01, respectively. The entries for the “fraction … with nuclear” value in assay [3] and in assay [4] were 0.101 ± 0.069 and 0.218 ± 0.032, respectively.
Regarding `CCCCCCCCCCCCCCCC[N+](C)(C)CCN(Cc1ccc(OC)cc1)c1ncccn1` [Thonzonium Bromide], the fraction in assay [1] is 0.138 ± 0.21; in assay [2], 0.952 ± 0.083. The “fraction … with nuclear” value is 0.17 ± 0.15 in assay [3] and 0.273 ± 0.2 in assay [4].
The corresponding values for `C[C@@H]1C[C@H]2[C@@H]3CCC4=CC(=O)C=C[C@]4(C)[C@@]3(Cl)[C@@H](O)C[C@]2(C)[C@@]1(OC(=O)c1ccco1)C(=O)CCl` [Mometasone furoate] are 0.0809 ± 0.12, 0.994 ± 0.01, 0.13 ± 0.1 and 0.255 ± 0.063.
For `CCC[C@@H]1C[C@@H](C(=O)N[C@@H]([C@H]2O[C@H](SC)[C@H](O)[C@@H](O)[C@H]2O)[C@@H](C)O)N(C)C1` [Lincomycin hydrochloride (Lincocin)], in that order: 0.1 ± 0.14, 0.998 ± 0.0034, 0.0948 ± 0.032 and 0.218 ± 0.035.
For `CCOC(=O)c1ncn2c1CN(C)C(=O)c1cc(F)ccc1-2` [Flumazenil], in that order: 0.0404 ± 0.023, 0.9977 ± 0.004, 0.0893 ± 0.05 and 0.214 ± 0.051.
As for `CC(N)C12CC3CC(CC(C3)C1)C2` (stereo not given) [Rimantadine (Flumadine)], the results for the fraction in assay [1] and in assay [2] were 0.071 ± 0.1 and 0.9943 ± 0.0099, respectively. The “fraction … with nuclear” value in assay [3] was 0.0631 ± 0.035; in assay [4], 0.238 ± 0.058.
The corresponding values for `Cc1cccc(Nc2ccccc2C(=O)O)c1C` [Mefenamic acid] are 0.0552 ± 0.071, 0.984 ± 0.027, 0.0958 ± 0.074 and 0.263 ± 0.06.
For `CCCc1cc(C(N)=S)ccn1` [Protionamide (Prothionamide)], in that order: 0.131 ± 0.18, 0.993 ± 0.012, 0.109 ± 0.033 and 0.223 ± 0.067.
For `CCCOc1ccc(C(=O)OCCN(CC)CC)cc1N` [Proparacaine HCl], in that order: 0.128 ± 0.17, 0.985 ± 0.025, 0.1 ± 0.056 and 0.186 ± 0.075.
Turning to `CNS(=O)(=O)Cc1ccc2[nH]cc(CCN(C)C)c2c1` [Sumatriptan succinate], the values for the fraction in assay [1] and in assay [2] were 0.121 ± 0.13 and 0.9983 ± 0.0029, respectively. Also, the entries for the “fraction … with nuclear” value in assay [3] and in assay [4] were 0.124 ± 0.075 and 0.206 ± 0.071, respectively.
The corresponding values for `CC(C)(C)C(=O)C(Oc1ccc(Cl)cc1)n1ccnc1` (stereo not given) [Climbazole] are 0.0318 ± 0.032, 0.985 ± 0.027, 0.133 ± 0.087 and 0.218 ± 0.042.
The corresponding values for `CC(C)c1nc(N(C)S(C)(=O)=O)nc(-c2ccc(F)cc2)c1/C=C/[C@@H](O)C[C@@H](O)CC(=O)O` [Rosuvastatin calcium (Crestor)] are 0.096 ± 0.12, 0.994 ± 0.01, 0.134 ± 0.097 and 0.243 ± 0.087.
For `CN1C(C(=O)Nc2ccccn2)=C(O)c2ccccc2S1(=O)=O` [Piroxicam (Feldene)], in that order: 0.0683 ± 0.063, 0.9975 ± 0.0043, 0.113 ± 0.077 and 0.184 ± 0.037.
`C[C@H](NC(=O)Cc1cc(F)cc(F)c1)C(=O)N[C@H](C(=O)OC(C)(C)C)c1ccccc1`: the fraction in assay [1] is 0.174 ± 0.26; in assay [2] it was 0.991 ± 0.016. Besides, the “fraction … with nuclear” value in assay [3] came to 0.137 ± 0.071; in assay [4], 0.224 ± 0.053.
For the compound `CCCCC(=O)O[C@H]1CC[C@H]2[C@@H]3CCc4cc(O)ccc4[C@H]3CC[C@]12C` [Estradiol valerate], the fraction in assay [1] turned out to be 0.117 ± 0.17; in assay [2], 0.986 ± 0.024. Also, the “fraction … with nuclear” value in assay [3] worked out at 0.128 ± 0.084; in assay [4] it was 0.183 ± 0.064.
